Data as given in PubChem BioAssay AID1671195 (Yale University, 2021)

- Screen: 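Regulators of LDL receptor activity judged by labelled LDL uptake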 (primary screen)
- Cells: human Huh7 hepatoma cells
- Reagent: siRNA pool against human genes, 18 nM
- Duration: about 2 to 2.5 days of knockdown, then 8 h LDL uptake
- Challenge: DiI-labelled LDL at 30 µg/ml for 8 h, in lipoprotein-deficient serum medium
- Read-out: 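Per-cell DiI-LDL intensity by automated imaging; well means scaled to the plate median and given as a robust z-score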
- Reading the numbers: robust z-score: higher = more LDL uptake after knockdown
- Active means: 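Active when two or more replicates show a robust z-score above 2 or below -2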
In all, the deposit lists about 22,000 reagents; this is an unselected part. About 1,510 of all reagents (6.9%) were called active. 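Active includes knockdowns raising or lowering LDL uptake; positive z-scores mean more uptake, negative mean less.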 Unmarked entries are inactive.

What is on record for LOC389773 (retired record)?
robust z-score, replicate 1: -0.123; robust z-score, replicate 2: -0.483; robust z-score, replicate 3: -0.377

What is on record for DGUOK?
robust z-score, replicate 1: 3.05 (active); robust z-score, replicate 2: 0.894; robust z-score, replicate 3: 2.44

For CHST11, what was measured?
robust z-score, replicate 1: 0.221; robust z-score, replicate 2: -0.451; robust z-score, replicate 3: -0.258

For SPANXN3, what does the deposit list?
robust z-score, replicate 1: -2.79; robust z-score, replicate 2: -1.71; robust z-score, replicate 3: -1.8

Which result is listed for ATP6V0C?
robust z-score, replicate 1: -0.917; robust z-score, replicate 2: -1.03; robust z-score, replicate 3: -1.07

With UHMK1, what does the deposit list?
robust z-score, replicate 1: 2.13 (active); robust z-score, replicate 2: 3.53; robust z-score, replicate 3: 1.72

What did the screen give for ZNF684?
robust z-score, replicate 1: 2.24; robust z-score, replicate 2: 0.92; robust z-score, replicate 3: 1.52

Which result is listed for TMEM150A?
robust z-score, replicate 1: -0.218; robust z-score, replicate 2: -0.176; robust z-score, replicate 3: 0.239

What did the screen give for IDI2-AS1?
robust z-score, replicate 1: 0.0498; robust z-score, replicate 2: 1.09; robust z-score, replicate 3: 1.85

For CHST10, how do the results read?
robust z-score, replicate 1: 0.189; robust z-score, replicate 2: 0.188; robust z-score, replicate 3: -0.294

For FRMPD3, what does the deposit list?
robust z-score, replicate 1: 0.439; robust z-score, replicate 2: -0.148; robust z-score, replicate 3: -0.168

With LOC442102 (retired record), what was measured?
robust z-score, replicate 1: -1.86; robust z-score, replicate 2: -1.51; robust z-score, replicate 3: -1.66

Which result is listed for IGFLR1?
robust z-score, replicate 1: 0.148; robust z-score, replicate 2: 0.551; robust z-score, replicate 3: 0.178

What did the screen give for KCNIP3?
robust z-score, replicate 1: 0.0232; robust z-score, replicate 2: -0.168; robust z-score, replicate 3: -0.0337

For LOC388819 (retired record), what was measured?
robust z-score, replicate 1: 0.608; robust z-score, replicate 2: 0.944; robust z-score, replicate 3: 0.748

Which result is listed for TEX15?
robust z-score, replicate 1: -0.62; robust z-score, replicate 2: 0.923; robust z-score, replicate 3: -0.854

What did the screen give for OPRPN?
robust z-score, replicate 1: -0.531; robust z-score, replicate 2: -0.488; robust z-score, replicate 3: -0.285

What is on record for CEP78?
robust z-score, replicate 1: 0.803; robust z-score, replicate 2: 0.173; robust z-score, replicate 3: 0.374

What is on record for FAM217A?
robust z-score, replicate 1: 1.66; robust z-score, replicate 2: 2.2; robust z-score, replicate 3: 1.82

What is on record for LOC100129603?
robust z-score, replicate 1: 0.858; robust z-score, replicate 2: 2.17; robust z-score, replicate 3: 1.14

What is on record for LOC149913 (retired record)?
robust z-score, replicate 1: 0.286; robust z-score, replicate 2: -0.148; robust z-score, replicate 3: 0.658

What did the screen give for GH2?
robust z-score, replicate 1: -0.751; robust z-score, replicate 2: 0.0909; robust z-score, replicate 3: -0.865

What did the screen give for NDUFA3?
robust z-score, replicate 1: -0.578; robust z-score, replicate 2: -0.917; robust z-score, replicate 3: -1.81

Which result is listed for TG?
robust z-score, replicate 1: 0.642; robust z-score, replicate 2: 0.325; robust z-score, replicate 3: 1.1

How did the screen score LOC441181 (retired record)?
robust z-score, replicate 1: 1.08; robust z-score, replicate 2: 1.14; robust z-score, replicate 3: 0.492

What is on record for PSKH2?
robust z-score, replicate 1: -1.02; robust z-score, replicate 2: -0.805; robust z-score, replicate 3: -1.33

For LRCH2, what was measured?
robust z-score, replicate 1: -1.07; robust z-score, replicate 2: -1.19; robust z-score, replicate 3: -1.21

With PLAT, how do the results read?
robust z-score, replicate 1: 1.07; robust z-score, replicate 2: 1.4; robust z-score, replicate 3: 1.52

What is on record for CAMK2A?
robust z-score, replicate 1: -0.24; robust z-score, replicate 2: 0.196; robust z-score, replicate 3: 0.481

What did the screen give for LOC283583 (retired record)?
robust z-score, replicate 1: 2.31 (active); robust z-score, replicate 2: 2.2; robust z-score, replicate 3: 1.96

Targets above whose gene name begins with I or i (2):
IDI2-AS1 — robust z-score, replicate 1: 0.0498; robust z-score, replicate 2: 1.09; robust z-score, replicate 3: 1.85
IGFLR1 — robust z-score, replicate 1: 0.148; robust z-score, replicate 2: 0.551; robust z-score, replicate 3: 0.178
